According to publication PMC1937012:
These are yes or no findings as the source states them, for the method shown. In cells and extracts the contact can be indirect. Binding can be weak; no strength is given.

Biological target: T1, Sum1p (S. cerevisiae) (UniProt P46676)
T1 sequence: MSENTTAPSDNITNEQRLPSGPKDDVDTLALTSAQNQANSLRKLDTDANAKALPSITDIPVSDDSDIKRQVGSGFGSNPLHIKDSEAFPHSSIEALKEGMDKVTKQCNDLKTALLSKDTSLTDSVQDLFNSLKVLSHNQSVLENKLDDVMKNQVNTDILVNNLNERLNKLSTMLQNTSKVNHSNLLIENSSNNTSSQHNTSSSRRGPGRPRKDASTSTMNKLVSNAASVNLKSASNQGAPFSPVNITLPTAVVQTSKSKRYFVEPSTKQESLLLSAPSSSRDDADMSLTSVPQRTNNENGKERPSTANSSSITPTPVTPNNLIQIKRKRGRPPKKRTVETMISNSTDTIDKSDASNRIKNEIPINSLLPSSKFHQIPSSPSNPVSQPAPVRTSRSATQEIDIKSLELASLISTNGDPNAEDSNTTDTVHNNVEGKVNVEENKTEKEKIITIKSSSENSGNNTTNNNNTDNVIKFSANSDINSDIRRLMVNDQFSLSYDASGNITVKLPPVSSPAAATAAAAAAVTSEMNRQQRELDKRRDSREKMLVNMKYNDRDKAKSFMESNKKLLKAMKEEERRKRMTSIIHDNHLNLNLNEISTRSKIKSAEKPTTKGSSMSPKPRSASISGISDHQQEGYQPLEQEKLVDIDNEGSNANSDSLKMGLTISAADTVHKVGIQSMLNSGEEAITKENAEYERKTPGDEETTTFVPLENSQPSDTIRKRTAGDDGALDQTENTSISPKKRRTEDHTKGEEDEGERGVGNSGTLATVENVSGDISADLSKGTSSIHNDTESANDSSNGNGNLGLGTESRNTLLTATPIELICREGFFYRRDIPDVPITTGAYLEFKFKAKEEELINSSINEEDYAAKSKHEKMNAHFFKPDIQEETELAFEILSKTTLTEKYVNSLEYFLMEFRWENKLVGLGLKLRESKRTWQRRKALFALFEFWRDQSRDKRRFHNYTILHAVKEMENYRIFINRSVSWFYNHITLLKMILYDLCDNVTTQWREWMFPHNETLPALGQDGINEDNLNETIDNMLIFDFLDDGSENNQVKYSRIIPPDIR
Test: co-IP; Sum1p immunoprecipitated with guinea pig anti-Sum1p serum and protein A agarose from yeast whole-cell lysates, 4 °C; blot with anti-HA; strains HST1-HA (LRY558), hst1Δ (LRY198) or hst1Δ sir2Δ (LRY333) with plasmids

binding: binds
Substance: HA-KlSir2p (K. lactis) (enzyme)
